Measured values taken from patent publication US20230091175A1.
No constants are given. Whether binding was seen depends on the method and setting. Some entries that bind do so weakly or less than the wild type.

Amino acid sequences for entries named in this document (tags omitted). Residues count along the entry.
UniProt P10145, residues 28-99: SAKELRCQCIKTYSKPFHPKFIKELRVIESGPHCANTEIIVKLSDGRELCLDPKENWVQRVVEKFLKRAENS

Target: interleukin 8 (CXCL8) (100-175: Shenandoah Biotechnology, Inc.) (UniProt P10145)
Test: SPR (Biacore 8K)

B1: R3 variant of anti-IL-8 antibody (clone 146-1) (Fab, V domains shown, not shown: a dimerising Fc or GST)
VH: EVQLVESGGGLVKPGGSLKLSCAASGFTFSSYAMSWVRQTPEKRLEWVATISNGGSYTYYPDSLKGRFTISRDNAKNTLYLQMSSLRSEDTAIYYCARGITGGVYFDYWGQGTTLTVSS
VL: DIQMTQSPASLSASVGETVTITCRASENIYSYLAWYQQKQGKSPHLLVYDAETLAEGVPSRFRGRGRGTQFSLKINSLQPEDFGSYYCQHHYGTPWTFGGGTKLEIKR
  binding: binds
